Key:
S100A1-1 = target: T1, S100A1-1 (human, UniProt P23297 1-94); experiment: Y2H, baits tested against each other
T1 construct: Full-length bait; also called full length S100A1
T1 sequence (looked up): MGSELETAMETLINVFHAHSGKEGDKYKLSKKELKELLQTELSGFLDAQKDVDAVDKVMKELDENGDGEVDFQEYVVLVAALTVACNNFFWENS

[1] = target: the molecule itself; experiment: Y2H, baits tested against each other
S100B-1 = target: T2, S100B-1 (human, UniProt P04271 1-92); experiment: Y2H, baits tested against each other
T2 construct: Full-length bait; also called full length S100B
T2 sequence (looked up): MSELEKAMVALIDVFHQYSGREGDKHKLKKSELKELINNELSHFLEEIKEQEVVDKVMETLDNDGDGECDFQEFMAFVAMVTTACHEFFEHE

S100B-2 = target: T3, S100B-2 (human, UniProt P04271 1-62, limits assumed); experiment: Y2H, baits tested against each other
T3 construct: Truncated bait; also called truncated S100B
T3 sequence (looked up): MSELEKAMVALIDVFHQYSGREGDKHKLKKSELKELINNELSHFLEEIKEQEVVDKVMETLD

[2] = target: S100A6 (Genbank ID: M14300) (human, UniProt P06703 1-90); experiment: Y2H 1x1 mating, binder AD fusion, target BD fusion
[3] = target: T4, Synphilin (Genbank ID: AF076929) (human, UniProt Q9Y6H5 335-660, limits assumed); experiment: Y2H 1x1 mating, binder AD fusion, target BD fusion
T4 construct: range 335-~660; Prey from kidney library; end of the fragment approximate; also called Synphilin I; Synphilin 1
T4 sequence (looked up): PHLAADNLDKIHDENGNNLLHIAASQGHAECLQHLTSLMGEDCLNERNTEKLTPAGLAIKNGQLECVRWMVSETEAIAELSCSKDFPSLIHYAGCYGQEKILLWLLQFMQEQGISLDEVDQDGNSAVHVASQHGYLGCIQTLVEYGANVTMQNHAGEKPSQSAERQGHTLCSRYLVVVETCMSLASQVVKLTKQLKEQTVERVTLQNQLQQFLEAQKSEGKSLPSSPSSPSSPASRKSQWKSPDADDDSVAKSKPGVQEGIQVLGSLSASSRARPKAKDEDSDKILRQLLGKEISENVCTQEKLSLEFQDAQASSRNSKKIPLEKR

[4] = target: T5, ATPase (ATP6N1) (Genbank ID: u73006) (human, UniProt Q93050 1-300, limits assumed); experiment: Y2H 1x1 mating, binder AD fusion, target BD fusion
T5 construct: range 1-~300; Prey from liver library; end of the fragment approximate; also called Vacuolar-type H(+) ATPase; ATP6N17

[5] = target: T6, S100A9 (Genbank ID: M26311) (human, UniProt P06702 1-114); experiment: Y2H 1x1 mating, binder AD fusion, target BD fusion
T6 construct: range 1-114; Prey from liver and muscle libraries
T6 sequence (looked up): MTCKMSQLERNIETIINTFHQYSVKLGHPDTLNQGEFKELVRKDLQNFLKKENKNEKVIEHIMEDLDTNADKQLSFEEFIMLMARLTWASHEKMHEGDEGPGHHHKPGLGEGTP

Measured: binding result

B1: S100A1-2 (other, human, UniProt P23297 1-62, looked up)
chain: MGSELETAMETLINVFHAHSGKEGDKYKLSKKELKELLQTELSGFLDAQKDVDAVDKVMKEL
notes: Truncated bait; also called truncated S100A1
no binding: all assays above
